Results published in the supplement of paper PMC10849652.
Some of the results follow.

The chains behind the UniProt entries cited, without tags or fusion partners. Where a name states a change or a piece, a line headed by the entry shows the natural chain unless it says otherwise.
UniProt Q9Y5P4: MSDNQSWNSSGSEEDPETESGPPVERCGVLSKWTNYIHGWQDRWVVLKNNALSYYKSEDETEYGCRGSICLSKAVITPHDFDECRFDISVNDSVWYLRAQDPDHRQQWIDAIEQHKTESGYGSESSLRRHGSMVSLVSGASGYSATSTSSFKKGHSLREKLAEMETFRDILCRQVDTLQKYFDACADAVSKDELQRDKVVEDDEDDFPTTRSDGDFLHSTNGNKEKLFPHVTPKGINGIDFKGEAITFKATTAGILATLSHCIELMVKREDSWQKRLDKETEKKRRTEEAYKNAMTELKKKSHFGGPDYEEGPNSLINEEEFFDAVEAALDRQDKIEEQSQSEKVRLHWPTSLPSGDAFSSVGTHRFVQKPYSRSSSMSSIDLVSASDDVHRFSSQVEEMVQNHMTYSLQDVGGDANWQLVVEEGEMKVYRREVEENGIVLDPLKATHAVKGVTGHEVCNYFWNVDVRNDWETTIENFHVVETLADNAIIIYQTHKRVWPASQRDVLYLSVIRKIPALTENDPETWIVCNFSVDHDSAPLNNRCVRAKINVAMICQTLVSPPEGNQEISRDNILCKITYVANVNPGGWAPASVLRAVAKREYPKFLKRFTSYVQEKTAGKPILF
UniProt Q86X02: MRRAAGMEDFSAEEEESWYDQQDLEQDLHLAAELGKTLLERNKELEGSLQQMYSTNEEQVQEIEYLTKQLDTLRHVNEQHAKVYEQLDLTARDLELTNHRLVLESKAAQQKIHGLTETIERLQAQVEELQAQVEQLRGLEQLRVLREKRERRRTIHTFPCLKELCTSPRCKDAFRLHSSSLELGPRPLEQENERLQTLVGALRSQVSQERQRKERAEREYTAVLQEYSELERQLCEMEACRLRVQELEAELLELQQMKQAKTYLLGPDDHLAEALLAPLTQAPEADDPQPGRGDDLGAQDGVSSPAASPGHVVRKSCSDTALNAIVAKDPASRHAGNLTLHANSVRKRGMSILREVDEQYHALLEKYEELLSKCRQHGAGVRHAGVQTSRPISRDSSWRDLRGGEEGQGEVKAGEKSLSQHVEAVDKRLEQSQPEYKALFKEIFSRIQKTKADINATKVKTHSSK
UniProt Q6ZU80: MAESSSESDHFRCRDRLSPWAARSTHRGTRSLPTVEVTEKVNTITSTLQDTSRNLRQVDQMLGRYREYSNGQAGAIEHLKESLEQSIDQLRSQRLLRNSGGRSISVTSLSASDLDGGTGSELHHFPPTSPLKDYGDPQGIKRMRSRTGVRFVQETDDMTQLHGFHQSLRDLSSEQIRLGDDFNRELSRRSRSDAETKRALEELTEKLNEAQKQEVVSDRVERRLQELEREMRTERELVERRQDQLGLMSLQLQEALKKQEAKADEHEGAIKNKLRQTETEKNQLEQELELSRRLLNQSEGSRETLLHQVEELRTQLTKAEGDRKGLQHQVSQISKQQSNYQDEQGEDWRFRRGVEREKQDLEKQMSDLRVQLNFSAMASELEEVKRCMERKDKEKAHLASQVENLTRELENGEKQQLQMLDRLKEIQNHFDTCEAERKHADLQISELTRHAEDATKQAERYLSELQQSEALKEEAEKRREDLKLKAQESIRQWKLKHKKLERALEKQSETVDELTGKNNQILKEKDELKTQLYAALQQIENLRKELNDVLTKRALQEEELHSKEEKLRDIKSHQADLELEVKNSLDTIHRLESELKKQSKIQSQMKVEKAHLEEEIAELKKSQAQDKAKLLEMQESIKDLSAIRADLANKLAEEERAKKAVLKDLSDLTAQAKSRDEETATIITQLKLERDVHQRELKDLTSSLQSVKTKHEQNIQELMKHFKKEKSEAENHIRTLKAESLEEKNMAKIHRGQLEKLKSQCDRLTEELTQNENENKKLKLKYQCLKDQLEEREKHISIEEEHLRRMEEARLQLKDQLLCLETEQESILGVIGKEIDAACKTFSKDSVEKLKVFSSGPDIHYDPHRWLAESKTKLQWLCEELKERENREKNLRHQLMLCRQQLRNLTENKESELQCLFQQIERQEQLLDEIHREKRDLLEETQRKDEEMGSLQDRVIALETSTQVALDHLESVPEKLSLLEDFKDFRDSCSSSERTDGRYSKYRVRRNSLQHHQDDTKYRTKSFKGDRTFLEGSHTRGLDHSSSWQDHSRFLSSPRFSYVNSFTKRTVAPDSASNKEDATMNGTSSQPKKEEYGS
UniProt Q8TEP8: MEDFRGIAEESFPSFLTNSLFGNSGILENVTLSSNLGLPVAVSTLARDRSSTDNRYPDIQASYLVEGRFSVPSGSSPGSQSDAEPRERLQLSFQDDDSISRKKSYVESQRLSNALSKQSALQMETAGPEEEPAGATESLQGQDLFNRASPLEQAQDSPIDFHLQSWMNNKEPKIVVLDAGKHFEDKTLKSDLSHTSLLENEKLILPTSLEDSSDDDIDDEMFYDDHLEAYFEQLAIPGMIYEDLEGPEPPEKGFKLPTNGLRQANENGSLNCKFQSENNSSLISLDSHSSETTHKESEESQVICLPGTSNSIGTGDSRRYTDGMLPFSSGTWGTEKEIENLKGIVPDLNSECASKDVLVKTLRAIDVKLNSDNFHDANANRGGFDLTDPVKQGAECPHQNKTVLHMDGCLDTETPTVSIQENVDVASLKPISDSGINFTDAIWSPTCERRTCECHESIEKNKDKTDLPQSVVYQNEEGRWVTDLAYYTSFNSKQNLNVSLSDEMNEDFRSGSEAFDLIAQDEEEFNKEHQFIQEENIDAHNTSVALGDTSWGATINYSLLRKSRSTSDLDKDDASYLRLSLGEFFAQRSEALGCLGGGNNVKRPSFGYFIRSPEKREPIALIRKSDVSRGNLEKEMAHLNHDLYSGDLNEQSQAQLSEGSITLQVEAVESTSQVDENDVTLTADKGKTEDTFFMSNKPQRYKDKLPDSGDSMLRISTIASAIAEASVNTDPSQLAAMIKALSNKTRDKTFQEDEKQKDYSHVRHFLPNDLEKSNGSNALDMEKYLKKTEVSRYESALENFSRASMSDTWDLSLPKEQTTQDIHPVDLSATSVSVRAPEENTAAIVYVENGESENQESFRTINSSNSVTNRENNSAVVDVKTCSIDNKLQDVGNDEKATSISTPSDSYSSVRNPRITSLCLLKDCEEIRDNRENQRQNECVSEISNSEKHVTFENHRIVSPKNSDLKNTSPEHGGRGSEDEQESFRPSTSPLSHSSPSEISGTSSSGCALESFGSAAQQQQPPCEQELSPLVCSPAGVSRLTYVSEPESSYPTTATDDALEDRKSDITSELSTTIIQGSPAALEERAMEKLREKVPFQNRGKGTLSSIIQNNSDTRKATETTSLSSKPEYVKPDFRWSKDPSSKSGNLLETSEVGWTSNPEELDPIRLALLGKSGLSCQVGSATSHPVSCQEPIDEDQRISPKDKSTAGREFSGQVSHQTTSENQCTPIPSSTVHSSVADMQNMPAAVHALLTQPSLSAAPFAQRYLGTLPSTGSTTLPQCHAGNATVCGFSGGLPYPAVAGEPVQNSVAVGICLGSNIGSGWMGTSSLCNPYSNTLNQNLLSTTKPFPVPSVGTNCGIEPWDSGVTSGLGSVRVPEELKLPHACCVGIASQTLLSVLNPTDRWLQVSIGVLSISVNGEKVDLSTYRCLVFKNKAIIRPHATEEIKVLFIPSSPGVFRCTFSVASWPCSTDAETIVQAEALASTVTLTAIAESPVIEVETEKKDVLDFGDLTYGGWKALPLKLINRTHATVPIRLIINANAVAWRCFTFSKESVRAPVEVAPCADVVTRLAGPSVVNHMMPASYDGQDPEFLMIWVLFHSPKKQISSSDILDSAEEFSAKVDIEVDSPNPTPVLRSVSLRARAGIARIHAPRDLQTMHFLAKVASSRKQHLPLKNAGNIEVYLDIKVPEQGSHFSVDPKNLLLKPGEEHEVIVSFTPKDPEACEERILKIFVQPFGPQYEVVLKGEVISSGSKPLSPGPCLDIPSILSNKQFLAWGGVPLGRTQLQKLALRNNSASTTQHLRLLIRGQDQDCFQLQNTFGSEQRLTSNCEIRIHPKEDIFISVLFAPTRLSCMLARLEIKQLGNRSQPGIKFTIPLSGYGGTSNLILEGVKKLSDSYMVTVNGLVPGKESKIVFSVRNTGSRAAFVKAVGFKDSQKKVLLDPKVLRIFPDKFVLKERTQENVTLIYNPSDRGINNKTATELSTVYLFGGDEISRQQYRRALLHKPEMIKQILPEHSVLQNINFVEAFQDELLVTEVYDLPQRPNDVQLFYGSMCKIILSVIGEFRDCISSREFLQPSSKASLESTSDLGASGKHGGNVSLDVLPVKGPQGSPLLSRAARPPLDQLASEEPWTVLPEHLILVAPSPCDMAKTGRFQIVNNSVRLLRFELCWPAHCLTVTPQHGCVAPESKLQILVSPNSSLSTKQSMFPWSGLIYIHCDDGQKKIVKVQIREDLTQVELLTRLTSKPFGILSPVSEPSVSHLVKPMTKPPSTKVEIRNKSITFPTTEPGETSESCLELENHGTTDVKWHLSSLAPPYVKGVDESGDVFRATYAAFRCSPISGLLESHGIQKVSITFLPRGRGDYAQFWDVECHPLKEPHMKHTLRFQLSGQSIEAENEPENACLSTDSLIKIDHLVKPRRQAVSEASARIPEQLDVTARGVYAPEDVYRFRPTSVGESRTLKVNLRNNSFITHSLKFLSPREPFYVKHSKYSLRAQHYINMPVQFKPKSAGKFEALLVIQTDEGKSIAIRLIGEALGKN
UniProt Q9H3Q1: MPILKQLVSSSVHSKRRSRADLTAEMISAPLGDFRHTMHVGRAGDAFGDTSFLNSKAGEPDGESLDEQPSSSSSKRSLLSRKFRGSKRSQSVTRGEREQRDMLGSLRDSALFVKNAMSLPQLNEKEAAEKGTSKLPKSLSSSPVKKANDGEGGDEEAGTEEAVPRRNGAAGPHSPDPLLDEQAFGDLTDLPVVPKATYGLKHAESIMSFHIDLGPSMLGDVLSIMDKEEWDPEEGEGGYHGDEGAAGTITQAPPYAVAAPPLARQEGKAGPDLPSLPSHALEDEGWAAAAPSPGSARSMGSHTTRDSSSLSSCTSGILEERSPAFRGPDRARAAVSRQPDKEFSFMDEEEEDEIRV
UniProt O75956: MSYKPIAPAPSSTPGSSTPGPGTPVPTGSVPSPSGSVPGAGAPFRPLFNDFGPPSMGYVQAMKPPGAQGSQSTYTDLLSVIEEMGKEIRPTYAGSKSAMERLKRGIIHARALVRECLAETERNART
UniProt Q9C0F1: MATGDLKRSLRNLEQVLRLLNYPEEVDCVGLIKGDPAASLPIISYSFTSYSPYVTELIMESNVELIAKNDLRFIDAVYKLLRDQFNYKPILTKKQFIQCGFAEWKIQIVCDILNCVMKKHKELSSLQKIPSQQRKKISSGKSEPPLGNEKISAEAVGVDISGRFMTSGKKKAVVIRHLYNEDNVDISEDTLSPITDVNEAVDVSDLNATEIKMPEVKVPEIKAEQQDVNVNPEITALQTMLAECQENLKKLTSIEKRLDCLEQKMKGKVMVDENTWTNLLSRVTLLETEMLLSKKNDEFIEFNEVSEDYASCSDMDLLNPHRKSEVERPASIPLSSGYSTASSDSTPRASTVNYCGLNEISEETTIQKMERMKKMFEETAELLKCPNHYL
UniProt O14519: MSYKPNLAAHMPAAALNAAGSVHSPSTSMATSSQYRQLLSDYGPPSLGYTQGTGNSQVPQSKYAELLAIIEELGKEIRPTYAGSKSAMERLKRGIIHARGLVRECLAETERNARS
UniProt Q8TAP6: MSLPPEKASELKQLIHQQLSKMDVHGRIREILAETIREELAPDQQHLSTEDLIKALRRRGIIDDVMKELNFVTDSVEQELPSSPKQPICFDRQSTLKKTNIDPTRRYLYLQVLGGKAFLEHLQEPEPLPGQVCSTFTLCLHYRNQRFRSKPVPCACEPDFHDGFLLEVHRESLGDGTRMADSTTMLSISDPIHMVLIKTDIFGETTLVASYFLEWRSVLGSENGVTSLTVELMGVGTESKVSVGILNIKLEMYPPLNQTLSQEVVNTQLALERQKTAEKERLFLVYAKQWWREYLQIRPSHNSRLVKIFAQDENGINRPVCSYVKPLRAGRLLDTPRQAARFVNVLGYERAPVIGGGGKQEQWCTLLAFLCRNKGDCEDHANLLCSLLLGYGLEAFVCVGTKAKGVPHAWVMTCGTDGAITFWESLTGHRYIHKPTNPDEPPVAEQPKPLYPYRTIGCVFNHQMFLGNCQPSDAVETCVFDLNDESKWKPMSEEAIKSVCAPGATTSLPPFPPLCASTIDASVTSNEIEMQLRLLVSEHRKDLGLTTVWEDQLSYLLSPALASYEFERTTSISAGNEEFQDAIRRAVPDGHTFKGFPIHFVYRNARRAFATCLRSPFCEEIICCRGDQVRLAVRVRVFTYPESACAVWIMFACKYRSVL
UniProt P46527, whole entry, looked up: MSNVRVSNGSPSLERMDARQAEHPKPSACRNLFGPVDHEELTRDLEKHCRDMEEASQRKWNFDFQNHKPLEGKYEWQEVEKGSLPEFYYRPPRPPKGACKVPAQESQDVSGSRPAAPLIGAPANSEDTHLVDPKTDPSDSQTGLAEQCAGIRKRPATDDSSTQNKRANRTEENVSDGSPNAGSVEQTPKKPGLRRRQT

compound: C1=CC=C(C=C1)[C@H](COC2=CC3=C(C=C2)NC(=O)N3)NC(=O)C4=CC=CN(C4=O)CC5=CC(=C(C=C5)F)F; experiment: log2 fold change, soluble protein after heating vs DMSO (PISA); higher = thermal stabilisation; K562 lysate, 10 uM; active = over 0.2 and 3.5 SD of the protein, either way, in both replicates (recomputed)
Summary of the method: (§1)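 K562 pellets were dounce-homogenised in PBS pH 7.4 with 1 mM MgCl2, and the crude extract at 1 mg/mL protein was treated with 10 μM compound for 30 min. Aliquots were heated for 3 min across 48°C-58°C, pooled, and brought to 0.5% NP-40 at 4°C; soluble protein was the supernatant after 21,000xg for 90 min. Soluble protein was quantified by TMTpro 16plex LC-MS/MS with channel sums equalised, and reported as log2 fold change in thermal stability against DMSO controls, with values from duplicates.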

Row | Target | log2 fold change
1 | CDC37L1 (UniProt Q7L3B6) | inactive: 0.009
2 | CETN3 (UniProt O15182) | inactive: 0.049
3 | CES2 isoform 4 (UniProt O00748) | inactive: 0.129
4 | CERT isoform 3 (UniProt Q9Y5P4) | inactive: -0.013
5 | CEP135 (UniProt Q66GS9) | inactive: 0
6 | CDK5RAP1 (UniProt Q96SZ6) | active: 0.266
7 | CDR2L (UniProt Q86X02) | inactive: -0.04
8 | CDC45 isoform 3 (UniProt O75419) | inactive: 0.076
9 | CENPE (UniProt Q02224) | inactive: -0.068
10 | CENPQ (UniProt Q7L2Z9) | inactive: -0.02
11 | CEP350 (UniProt Q5VT06) | inactive: -0.038
12 | CEP128 (UniProt Q6ZU80) | inactive: -0.38
13 | CEP170 (UniProt Q5SW79) | inactive: 0.024
14 | CEP192 (UniProt Q8TEP8) | inactive: -0.081
15 | CENPH (UniProt Q9H3R5) | inactive: 0.003
16 | CERS2 (UniProt Q96G23) | inactive: -0.038
17 | CDC16 (UniProt Q13042) | inactive: -0.038
18 | CDAN1 (UniProt Q8IWY9) | inactive: -0.011
19 | CDK16 isoform 2 (UniProt Q00536) | inactive: -0.02

Row | Target | log2 fold change
20 | CEBPZ (UniProt Q03701) | inactive: -0.034
21 | CDC42EP4 (UniProt Q9H3Q1) | inactive: 0.113
22 | CELF2 isoform 3 (UniProt O95319) | inactive: -0.009
23 | CDC7 (UniProt O00311) | inactive: -0.063
24 | CDYL (UniProt Q9Y232) | inactive: 0.051
25 | CDK2AP2 (UniProt O75956) | inactive: 0.046
26 | CEP44 (UniProt Q9C0F1) | inactive: 0.014
27 | CDC123 (UniProt O75794) | inactive: -0.035
28 | CDC42BPB (UniProt Q9Y5S2) | inactive: 0.009
29 | CDK2AP1 (UniProt O14519) | inactive: 0.051
30 | CEP76 (UniProt Q8TAP6) | inactive: -0.009
31 | CDK6 (UniProt Q00534) | inactive: -0.024
32 | CDK17 isoform 2 (UniProt Q00537) | inactive: 0.072
33 | CDK5RAP2 (UniProt Q96SN8) | inactive: 0.018
34 | CDKN1B (UniProt P46527) | inactive: 0.059
35 | CDCA2 (UniProt Q69YH5) | inactive: 0.142
36 | CDC42EP1 (UniProt Q00587) | inactive: 0.034
37 | CDK11B (UniProt P21127) | inactive: -0.035
38 | CDIPT (UniProt O14735) | inactive: 0.007

compound: CC1=C(SC2=C1C(=N[C@H](C3=NN=C(N32)C)CC(=O)N)C4=CC=C(C=C4)Cl)C; experiment: as above
Summary of the method: as §1

Row | Target | log2 fold change
39 | CDC37L1 (UniProt Q7L3B6) | inactive: -0.042
40 | CETN3 (UniProt O15182) | inactive: -0.012
41 | CES2 isoform 4 (UniProt O00748) | inactive: 0.159
42 | CERT isoform 3 (UniProt Q9Y5P4) | inactive: 0.007
43 | CEP135 (UniProt Q66GS9) | inactive: -0.007
44 | CDK5RAP1 (UniProt Q96SZ6) | inactive: -0.117
45 | CDR2L (UniProt Q86X02) | inactive: 0.031
46 | CDC45 isoform 3 (UniProt O75419) | inactive: -0.01
47 | CENPE (UniProt Q02224) | inactive: 0.013
48 | CENPQ (UniProt Q7L2Z9) | inactive: -0.02
49 | CEP350 (UniProt Q5VT06) | inactive: 0.008
50 | CEP128 (UniProt Q6ZU80) | inactive: 0.338
51 | CEP170 (UniProt Q5SW79) | inactive: 0.021
52 | CEP192 (UniProt Q8TEP8) | inactive: -0.018
53 | CENPH (UniProt Q9H3R5) | inactive: 0.001
54 | CERS2 (UniProt Q96G23) | inactive: 0.007
55 | CDC16 (UniProt Q13042) | inactive: 0.027
56 | CDAN1 (UniProt Q8IWY9) | inactive: 0.011
57 | CDK16 isoform 2 (UniProt Q00536) | inactive: -0.059

Row | Target | log2 fold change
58 | CEBPZ (UniProt Q03701) | inactive: 0.08
59 | CDC42EP4 (UniProt Q9H3Q1) | inactive: -0.084
60 | CELF2 isoform 3 (UniProt O95319) | inactive: -0.012
61 | CDC7 (UniProt O00311) | inactive: 0.084
62 | CDYL (UniProt Q9Y232) | inactive: 0.005
63 | CDK2AP2 (UniProt O75956) | inactive: -0.101
64 | CEP44 (UniProt Q9C0F1) | inactive: -0.04
65 | CDC123 (UniProt O75794) | inactive: 0.02
66 | CDC42BPB (UniProt Q9Y5S2) | inactive: 0
67 | CDK2AP1 (UniProt O14519) | inactive: -0.17
68 | CEP76 (UniProt Q8TAP6) | inactive: -0.01
69 | CDK6 (UniProt Q00534) | inactive: -0.018
70 | CDK17 isoform 2 (UniProt Q00537) | inactive: 0.099
71 | CDK5RAP2 (UniProt Q96SN8) | inactive: 0.038
72 | CDKN1B (UniProt P46527) | inactive: -0.038
73 | CDCA2 (UniProt Q69YH5) | inactive: -0.01
74 | CDC42EP1 (UniProt Q00587) | inactive: -0.092
75 | CDK11B (UniProt P21127) | inactive: 0.029
76 | CDIPT (UniProt O14735) | inactive: -0.036
